# This list was built around the results that the source calls inconclusive (neither active nor inactive); the mix of calls is not that of the screen. Potencies beside an inconclusive call are fits to weak or partial responses and may not hold up. The source made the active and inactive calls. How the source made its calls: active means hit-call score of the fitted dose curve at least 0.9, where 1 is the maximum; inconclusive means response in the unintended direction; inactive means score below 0.9.
# Assay: CCTE_Mundy_HCI_hNP1_CellTiter: CCTE's Cell Titer-Glo 2 Assay in human neuroprogenitor cells for Viability, Mundy Lab (AID 2284241);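 on AC50: a hit is a drop in ATP luminescence versus DMSO meaning reduced viability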
# In short: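 Viability read as luminescent ATP content (CellTiter-Glo, 30 min room temperature) twenty-four hours after dosing, relative to DMSO. Cells: WA09-derived hNP1 neuroprogenitors on poly-L-ornithine/laminin, plated 40 to 44 hours before chemical.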
SMILES,AC50,outcome
O=C1C2(Cl)C3(Cl)C4(Cl)C(Cl)(Cl)C5(Cl)C3(Cl)C1(Cl)C5(Cl)C24Cl (configuration not stated),active: 23500 nM,
C=C(C)C(=O)[O][Sn]([CH2]CCC)([CH2]CCC)[CH2]CCC,active: 335 nM,
CO/C=C(/C(=O)OC)c1ccccc1COc1cccc(C(F)(F)F)n1,active: 81500 nM,
CCC[CH2][Sn]([Cl])([CH2]CCC)[CH2]CCC,active: 335 nM,
CN/C(=N\[N+](=O)[O-])NCc1cnc(Cl)s1,,inactive
OCC(F)(F)OC(F)(F)C(F)(F)OC(F)(F)C(F)(F)OC(F)(F)F,inconclusive: 8.32 nM,
NS(=O)(=O)C(F)(F)C(F)(F)C(F)(F)C(F)(F)C(F)(F)C(F)(F)C(F)(F)C(F)(F)F,inconclusive: 2980 nM,
COP(=S)(OC)SCn1nnc2ccccc2c1=O,,inactive
CO/C=C(/C(=O)OC)c1ccccc1Oc1cc(Oc2ccccc2C#N)ncn1,inconclusive: 9920 nM,
C=CC(=O)OCC(F)(F)C(F)F,,inactive
O=[N+]([O-])c1cc(C(F)(F)F)c(Cl)c([N+](=O)[O-])c1Nc1ncc(C(F)(F)F)cc1Cl,active: 2400 nM,
C[N+]1(C)CCCCC1,inconclusive: 0.555 nM,
CCOP(=S)(OCC)SCSCC,inconclusive: 50000 nM,

# Assay: CCTE_Mundy_HCI_Cortical_Synap_Neur_Matur_NeuronCount: CCTE's Synaptogenesis and Neurite Maturation Assay in rat cortical cells for Neuron Count, Mundy Lab (AID 2284242);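 further: neuron number from Hoechst nuclei and MAP2 staining by high-content imaging; hits reduce neuron count versus DMSO baseline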
# In short: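 Cortical cells from rat are plated, treated with AraC at DIV 5, and exposed to test chemicals with a media change at DIV 7. At DIV 12 they are fixed and immunostained (MAP2, synaptophysin), and imaged neuron counts are compared against DMSO controls.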
row,SMILES,AC50
1,CN/C(=N\[N+](=O)[O-])NCc1cnc(Cl)s1,inconclusive: 5.59 nM
2,C=CC1(C)OC(=O)N(c2cc(Cl)cc(Cl)c2)C1=O (configuration not stated),inconclusive: 1 nM
3,CC(C)(C)c1ccc(CSc2cnn(C(C)(C)C)c(=O)c2Cl)cc1,active: 0.347 nM
4,O=[N+]([O-])/N=C1\NCCN1Cc1ccc(Cl)nc1,inconclusive: 2.4 nM
5,C=CCC1=C(C)C(OC(=O)C2C(C=C(C)C)C2(C)C)CC1=O (configuration not stated),inconclusive: 2.24 nM
6,COP(=S)(OC)SCn1nnc2ccccc2c1=O,inconclusive: 2.15 nM
7,CC1(C)C(C=C(Cl)Cl)C1C(=O)OC(C#N)c1ccc(F)c(Oc2ccccc2)c1 (configuration not stated),inconclusive: 4.49 nM
8,CO/C=C(/C(=O)OC)c1ccccc1Oc1cc(Oc2ccccc2C#N)ncn1,active: 3730 nM
9,CNC(=O)ON=CC(C)(C)SC,inconclusive: 50000 nM
10,C[N+]1(C)CCCCC1,inconclusive: 5.98 nM
11,CCOP(=S)(OCC)SCSCC,inconclusive: 8.9 nM
12,COP(=S)(OC)Oc1nc(Cl)c(Cl)cc1Cl,active: 25700 nM
13,CSC1=N[C@@](C)(c2ccccc2)C(=O)N1Nc1ccccc1,inconclusive: 0.583 nM
14,CS(=O)(=O)c1ccc(C(=O)C2C(=O)CCCC2=O)c([N+](=O)[O-])c1,inconclusive: 8.62 nM

# Some of the entries so far, bar-delimited.
row | SMILES | AC50
9 | CNC(=O)ON=CC(C)(C)SC | inconclusive: 50000 nM
10 | C[N+]1(C)CCCCC1 | inconclusive: 5.98 nM

# From PubChem BioAssay (EPA / NIEHS)
